# From PubChem BioAssay AID504467 (National Center for Advancing Translational Sciences (NCATS), 2011)
# Among all 330,000 compounds or so, about 7,700 (2.3%) were called active. The shares of active, inactive and inconclusive entries below differ from those in the screen. Calls come from the whole dose curve; as a rule, active = well fitted inhibition curve with a large enough effect; inconclusive = small, poorly fitted or top-dose-only effect, or effect the other way; inactive = flat fitted curve, though single readings scatter. A potency beside an inconclusive call is a rough fit, not a confirmed value.
# Assay: qHTS screen for small molecules that inhibit ELG1-dependent DNA repair in human embryonic kidney (HEK293T) cells expressing luciferase-tagged ELG1; note: nearly all actives have a fitted effect of over 55% in size
# Settings: HEK293T ELG1-luciferase reporter, luminescence, 16 h, DNA damage induced by 5-fluorouridine; activity change, negative = inhibition: at 46.1 µM (top of the series)
# Method in brief: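 DMSO vehicle served as the neutral condition. Each well held 2,000 cells given 5-fluorouridine plus compound; after 16 hr at 37 °C/5% CO2, ONE-Glo was added and luciferase measured 30 min later.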
# % is set by controls: 0 for no effect and ±100 for the full control effect; potency is the fitted concentration of half-maximal effect.
Structure (SMILES),"activity change, negative = inhibition",Potency
O=C(Nc1cccc(C(F)(F)F)c1)NC1CCCCC1,inactive: -6.08%,–
COc1ccc(CN(C)C(=O)/C=C/c2ccc(S(=O)(=O)N3CCOCC3)cc2)cc1F,–,active: 23.1 µM
COc1ccc(Nc2nc(-c3cc4cccc(OC)c4oc3=O)cs2)cc1,–,"inconclusive: 16.4 µM [inhibitor, partial curve, poor fit]"
COCCCNC(=O)c1ccc2c(=O)n(C3CCCC3)c(=S)[nH]c2c1,–,"inconclusive: 13 µM [inhibitor, partial curve, poor fit]"
O=C(Cc1cccs1)N1CCN(S(=O)(=O)c2ccc(F)c(F)c2)CC1,inactive: 11%,–
O=C(O)CCCN1C(=O)/C(=C/c2ccncc2)SC1=S,–,"inconclusive: 32.6 µM [inhibitor, single point]"
O=C(C(Sc1ccccc1)c1ccccc1)N1CCN(c2ccccc2)CC1 (configuration not stated),inactive: -16.7%,–
CSC(=Nc1ccccc1)C(C#N)c1nc2ccccc2[nH]1 (configuration not stated),inactive: -14.6%,–
O=C(CSc1nnnn1-c1ccccc1)c1ccco1,–,"inconclusive: 18.3 µM [activator, single point]"
CN1C(=O)c2ccc(NC(=O)c3ccc(N4CCCCC4)c([N+](=O)[O-])c3)cc2C1=O,–,active: 3.66 µM
C=C(C)CNC(=S)Nc1cccc(S(=O)(=O)NC2=NCCC2)c1,inactive: -7.85%,–
Cn1nc(-c2ccccc2)c(CSc2cccc(Cl)c2)c1Cl,–,"inconclusive: 23.1 µM [inhibitor, partial curve, poor fit]"
CCc1ccc(NC(=O)N(C2CCC(C)CC2)C2CCN(C(C)=O)CC2)cc1 (configuration not stated),–,"inconclusive: 29.1 µM [activator, single point]"
S=C(NCc1ccccc1)NNc1ccccc1,inactive: -13.6%,–
Cc1c(C)c2ccc(OCC(=O)NCCc3c[nH]c4ccccc34)c(C)c2oc1=O,–,"inconclusive: 25.9 µM [inhibitor, single point]"
O=C(/C=C\c1ccco1)Nc1nc(-c2ccccc2)cs1,–,"inconclusive: 18.4 µM [activator, partial curve]"
O=C1C2C3C=CC(C4CC34)C2C(=O)N1CCc1ccccc1 (configuration not stated),–,"inconclusive: 20.6 µM [activator, partial curve]"
Clc1cccc(-c2cc3nc4c(c(NCc5ccco5)n3n2)CCCC4)c1,–,"inconclusive: 4.61 µM [activator, full curve]"
CC1CCC2(CC1)NC(=O)N(Cc1nc(-c3ccccc3)no1)C2=O (configuration not stated),–,"inconclusive: 20.6 µM [inhibitor, partial curve]"

# Taken from above:
# In activity change, negative = inhibition, `S=C(NCc1ccccc1)NNc1ccccc1` shows inactive: -13.6%
# In Potency, `O=C1C2C3C=CC(C4CC34)C2C(=O)N1CCc1ccccc1` (configuration not stated) shows inconclusive: 20.6 µM [activator, partial curve]

# Continuation.

Structure (SMILES),"activity change, negative = inhibition",Potency
CC(=O)c1cc(C#N)c(SCC(=O)Nc2nccs2)nc1C,–,"inconclusive: 2.59 µM [activator, full curve]"
CN(CC(=O)Nc1ccccc1C(F)(F)F)C(=O)COc1ccccc1Cc1ccccc1,inactive: -2.6%,–
C=CCn1c(COc2ccccc2OC)nc2ccccc21,inactive: 29.6%,–
Cc1cc(C)c(NC(=O)CS(=O)CC(=O)NCCN2CCCCCC2)c(C)c1 (configuration not stated),inactive: 15%,–
Cc1cc(C)n2c(nc3ccccc32)c1C(=O)NN,–,"inconclusive: 23.1 µM [activator, single point]"
Cc1oc2c(c1C(=O)c1ccc(Cl)cc1)C(=O)C(=O)c1ccccc1-2,inactive: 13.1%,–
CC(c1ccon1)N(C)C(=O)c1ccc2nc(Cc3cccc(Cl)c3)oc2c1 (configuration not stated),inactive: 0.786%,–
Cc1cc(C(=O)COC(=O)CCc2nc3ccccc3c(=O)[nH]2)c(C)n1CC1CCCO1 (configuration not stated),inactive: 2.85%,–
CC(=O)Cn1ncc(N2CCOCC2)c(Br)c1=O,–,"inconclusive: 16.4 µM [activator, partial curve, poor fit]"
C=CCc1c(N(CC)CC)nc(C)[nH]c1=O,–,"inconclusive: 7.3 µM [inhibitor, partial curve, poor fit]"
O=C(O)c1cccc2cccnc12,–,"inconclusive: 5.8 µM [inhibitor, partial curve, poor fit]"
COc1cc(OC)c(OC)cc1CN1CCN(Cc2ccc(SC)cc2)CC1,–,"inconclusive: 29.1 µM [inhibitor, single point]"
CCOC(=O)c1[nH]c2ccc(OCC)cc2c1NC(=O)CN1CCCC(C)C1 (configuration not stated),–,"inconclusive: 22.4 µM [inhibitor, single point]"
Cc1ccc(-c2c(C(=O)N/N=C/c3sccc3C)nnn2-c2nonc2N)cc1,–,"inconclusive: 16.4 µM [inhibitor, single point]"
CSc1ccccc1NC(=O)COC(=O)CCC(=O)c1ccc(F)cc1,–,"inconclusive: 23.1 µM [activator, single point]"
CC1CCc2sc(C(=O)N/N=C/c3ccc(O)cc3)cc2C1 (configuration not stated),–,"inconclusive: 20.6 µM [activator, single point]"
CCc1ccc(OCC(=O)NNC(=S)NC(=O)C2CC2)c(Br)c1,inactive: -2.98%,–
COc1ccc2[nH]cc(/C=C(/C#N)S(=O)(=O)c3ccccc3)c2c1,–,"inconclusive: 16.4 µM [inhibitor, partial curve, poor fit]"
